Experimental data reported in the supplement of paper PMC7661543.
± gives the standard deviation of the averaged measurements. Differences between knockout arms are mostly noise.

Tested on: ZR-75-1
Experiment: relative cell number vs DMSO control (72 h) (% of DMSO); higher = less growth inhibition (more cells)
Experimental: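 QMAP-Seq: a pool of 5 breast cancer cell lines (ZR-75-1, SKBR3, HCC-38, MDA-MB-231, BT-20), each carrying 12 doxycycline-inducible Cas9 sgRNA perturbations (11 knockouts plus non-targeting sgNT), was treated with compounds for 72 h at four 10-fold doses (10 nM-10 uM or 1 nM-1 uM range). Barcodes were amplified and sequenced, and cell number was interpolated from 293T spike-in standard curves. The result is expressed as % of the median of DMSO wells. Two biological replicates.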

[1] = sgRNA knockout: sgATF3, 1000 nM
[2] = sgRNA knockout: sgATF3, 10000 nM
[3] = sgRNA knockout: sgATF4, 1000 nM
[4] = sgRNA knockout: sgATF4, 10000 nM
[5] = sgRNA knockout: sgATF6, 1000 nM
[6] = sgRNA knockout: sgATF6, 10000 nM
[7] = sgRNA knockout: sgATG7, 1000 nM
[8] = sgRNA knockout: sgATG7, 10000 nM
[9] = sgRNA knockout: sgERN1, 1000 nM
[10] = sgRNA knockout: sgERN1, 10000 nM
[11] = sgRNA knockout: sgHSF2, 1000 nM
[12] = sgRNA knockout: sgHSF2, 10000 nM
[13] = sgRNA knockout: sgNFE2L2, 10 nM
[14] = sgRNA knockout: sgNFE2L2, 100 nM
[15] = sgRNA knockout: sgNFE2L2, 1000 nM
[16] = sgRNA knockout: sgNFE2L2, 10000 nM
[17] = sgRNA knockout: sgSLC35F2, 10 nM
[18] = sgRNA knockout: sgSLC35F2, 100 nM
[19] = sgRNA knockout: sgSLC35F2, 1000 nM
[20] = sgRNA knockout: sgSLC35F2, 10000 nM
[21] = sgRNA knockout: sgXBP1, 1000 nM
[22] = sgRNA knockout: sgXBP1, 10000 nM

SMILES | relative cell number (sgRNA knockout: sgATF3, 10 nM) | relative cell number (sgRNA knockout: sgATF3, 100 nM) | relative cell number [1] | relative cell number (sgRNA knockout: sgATF4, 10 nM) | relative cell number (sgRNA knockout: sgATF4, 100 nM) | relative cell number [3] | relative cell number (sgRNA knockout: sgATF6, 10 nM) | relative cell number (sgRNA knockout: sgATF6, 100 nM) | relative cell number [5] | relative cell number (sgRNA knockout: sgATG7, 10 nM) | relative cell number (sgRNA knockout: sgATG7, 100 nM) | relative cell number [7] | relative cell number (sgRNA knockout: sgERN1, 10 nM) | relative cell number (sgRNA knockout: sgERN1, 100 nM) | relative cell number [9] | relative cell number (sgRNA knockout: sgHSF2, 10 nM) | relative cell number (sgRNA knockout: sgHSF2, 100 nM) | relative cell number [11] | relative cell number [13] | relative cell number [14] | further results
Cc1ccc(Nc2nccc(N(C)c3ccc4c(C)n(C)nc4c3)n2)cc1S(N)(=O)=O [Pazopanib] | 116 ± 12 | 63.1 ± 3.5 | 109 ± 5.9 | 87.6 ± 20 | 63.4 ± 15 | 57 ± 25 | 108 ± 38 | 89.2 ± 50 | 80.5 ± 4.8 | 95.8 ± 16 | 71.8 ± 4.6 | 86.9 ± 5 | 90.2 ± 1.7 | 115 ± 10 | 94.9 ± 18 | 109 ± 3.2 | 93.6 ± 11 | 95.8 ± 4.7 | 106 ± 31 | 91.9 ± 16 | relative cell number [2]: 44.2 ± 2.5; relative cell number [4]: 45.04 ± 0.34; relative cell number [6]: 29 ± 6.5; relative cell number [8]: 41 ± 1.6; relative cell number [10]: 44.9 ± 9.9; relative cell number [12]: 34.7 ± 8.8; relative cell number [15]: 129 ± 50; relative cell number [16]: 41.4 ± 11; relative cell number [17]: 105 ± 73; relative cell number [18]: 81.3 ± 65; relative cell number [19]: 71 ± 1.7; relative cell number [20]: 27.5 ± 0.59; relative cell number (sgRNA knockout: sgXBP1, 10 nM): 118 ± 13; relative cell number (sgRNA knockout: sgXBP1, 100 nM): 95.1 ± 11; relative cell number [21]: 92.3 ± 36; relative cell number [22]: 33.7 ± 12
Cc1ccc(C(=O)Cn2c3c(sc2=N)CCCC3)cc1 [PifithrinAlpha] | 107 ± 36 | 66.9 ± 11 | 86.7 ± 10 | 98.3 ± 21 | 111 ± 4 | 112 ± 12 | 94.7 ± 49 | 86.2 ± 6.6 | 99.1 ± 44 | 114 ± 24 | 88.6 ± 8.2 | 80.8 ± 9.6 | 110 ± 9.3 | 103 ± 6.3 | 99.8 ± 21 | 84.6 ± 14 | 105 ± 4.8 | 74.9 ± 10 | 95 ± 2.5 | 96 ± 1.2 | relative cell number [2]: 45.2 ± 11; relative cell number [4]: 55.8 ± 20; relative cell number [6]: 45.4 ± 22; relative cell number [8]: 59.6 ± 1.1; relative cell number [10]: 51.8 ± 8.6; relative cell number [12]: 47.33 ± 0.46; relative cell number [15]: 88.4 ± 4.7; relative cell number [16]: 49.7 ± 15; relative cell number [17]: 82.6 ± 3.3; relative cell number [18]: 72.4 ± 56; relative cell number [19]: 81.4 ± 20; relative cell number [20]: 34.1 ± 28; relative cell number (sgRNA knockout: sgXBP1, 10 nM): 84.88 ± 0.15; relative cell number (sgRNA knockout: sgXBP1, 100 nM): 108 ± 4.1; relative cell number [21]: 81.5 ± 22; relative cell number [22]: 49.4 ± 5.9
COc1cc(OC)c(/C=C/S(=O)(=O)Cc2ccc(OC)c(NCC(=O)O)c2)c(OC)c1 [Rigosertib] | 72.7 ± 2.6 | 25.3 ± 4.1 | 28.2 ± 1.5 | 67 ± 39 | 45.5 ± 5.8 | 21.6 ± 8.4 | 96.2 ± 11 | 37.7 ± 2.3 | 20.7 ± 4 | 101 ± 9.4 | 50.7 ± 1.8 | 23 ± 5.3 | 72.5 ± 8.7 | 35.8 ± 16 | 27.4 ± 12 | 99.6 ± 16 | 44.2 ± 9.9 | 22.9 ± 0.54 | 94.9 ± 26 | 40.7 ± 3.1 | relative cell number [2]: 20.1 ± 6.5; relative cell number [4]: 21.2 ± 5.1; relative cell number [6]: 15.6 ± 1.3; relative cell number [8]: 20.6 ± 3.4; relative cell number [10]: 26.4 ± 4.8; relative cell number [12]: 20.5 ± 2.5; relative cell number [15]: 20.7 ± 6.7; relative cell number [16]: 18.8 ± 5.8; relative cell number [17]: 81.6 ± 25; relative cell number [18]: 45.1 ± 23; relative cell number [19]: 24.8 ± 7.5; relative cell number [20]: 10.2 ± 7.8; relative cell number (sgRNA knockout: sgXBP1, 10 nM): 87.6 ± 22; relative cell number (sgRNA knockout: sgXBP1, 100 nM): 35.3 ± 7.3; relative cell number [21]: 21.6 ± 1.9; relative cell number [22]: 17.5 ± 2.9
CCc1c2c(nc3ccc(O)cc13)-c1cc3c(c(=O)n1C2)COC(=O)[C@]3(O)CC [SN38] | 44.3 ± 11 | 23.5 ± 0.99 | 30.2 ± 7.7 | 70.3 ± 16 | 24.6 ± 3.1 | 15.4 ± 15 | 40.8 ± 18 | 25.2 ± 14 | 29.9 ± 2.1 | 50.6 ± 5.3 | 30.6 ± 4 | 24.1 ± 4.2 | 57.4 ± 13 | 38.6 ± 4.6 | 41.8 ± 5.5 | 43.2 ± 7.2 | 29 ± 4.5 | 18 ± 11 | 46.7 ± 0.6 | 32.3 ± 12 | relative cell number (sgRNA knockout: sgATF3, 1 nM): 111 ± 39; relative cell number (sgRNA knockout: sgATF4, 1 nM): 77.3 ± 35; relative cell number (sgRNA knockout: sgATF6, 1 nM): 82.1 ± 5.9; relative cell number (sgRNA knockout: sgATG7, 1 nM): 82.6 ± 1.4; relative cell number (sgRNA knockout: sgERN1, 1 nM): 80.5 ± 20; relative cell number (sgRNA knockout: sgHSF2, 1 nM): 104 ± 8.1; relative cell number (sgRNA knockout: sgNFE2L2, 1 nM): 78.8 ± 9.7; relative cell number [15]: 27.5 ± 6.9; relative cell number (sgRNA knockout: sgSLC35F2, 1 nM): 58.7 ± 8.5; relative cell number [17]: 60.6 ± 15; relative cell number [18]: 29.682 ± 0.018; relative cell number [19]: 26.3 ± 10; relative cell number (sgRNA knockout: sgXBP1, 1 nM): 104 ± 15; relative cell number (sgRNA knockout: sgXBP1, 10 nM): 43.5 ± 8.6; relative cell number (sgRNA knockout: sgXBP1, 100 nM): 30.4 ± 2.3; relative cell number [21]: 28.3 ± 1.4
CC(=O)Nc1nc(C)c(S(=O)(=O)Nc2ccc(C(O)(C(F)(F)F)C(F)(F)F)cc2)s1 [SR1001] | 107 ± 15 | 97.4 ± 3.9 | 104 ± 16 | 115 ± 38 | 114.3 ± 0.56 | 127 ± 24 | 132 ± 37 | 89.5 ± 21 | 112 ± 35 | 80.1 ± 27 | 98.9 ± 50 | 120 ± 3.3 | 123 ± 12 | 103 ± 6.6 | 103 ± 16 | 99.5 ± 1.4 | 86.66 ± 0.83 | 113 ± 4.4 | 116 ± 22 | 111 ± 29 | relative cell number [2]: 112 ± 19; relative cell number [4]: 114 ± 14; relative cell number [6]: 104 ± 12; relative cell number [8]: 105 ± 16; relative cell number [10]: 131 ± 17; relative cell number [12]: 117 ± 11; relative cell number [15]: 95.1 ± 17; relative cell number [16]: 124 ± 2.8; relative cell number [17]: 91.2 ± 2.3; relative cell number [18]: 92.5 ± 52; relative cell number [19]: 109 ± 25; relative cell number [20]: 110 ± 3; relative cell number (sgRNA knockout: sgXBP1, 10 nM): 114 ± 7.7; relative cell number (sgRNA knockout: sgXBP1, 100 nM): 95.4 ± 9.4; relative cell number [21]: 104 ± 4.3; relative cell number [22]: 94.6 ± 5.3
